Results as given in PMC11982498 (Redox Biology, 2025).

What was measured:
[1] = system: BAX gene transcription in brain of APP/PS1 mice; experiment: Real-time RT-PCR of mice brain, BAX; format: in vivo; conditions: 10 mg/kg
Method: (§1) Five months old male APP/PS1 mice, weighing 25–33 g, were purchased from Guangdong Medical Laboratory Animal Center and housed in the Laboratory Animal Center of Sun Yat-sen University (Guangzhou, China) for experimentation. […] The mice were housed in a specific pathogen-free environment with a controlled temperature of 22 ± 1 °C and a 12-h dark/light cycle. The mice were fed with a standard diet, and 30 mice were randomly divided into 6 groups (N = 5). […] Behavioral experiments were then conducted, and tissue specimens were collected for biochemical analysis.
(§2) ^a -∆∆Ct = -[(Ct value of genes in treated sample - Ct value of genes in control) - (Ct value of β-actin in treated sample - Ct value of β-actin in control)]. ^b F: The relative expression fold.
(§3) Following sample homogenization, chloroform was added, and the solution was allowed to have phase separation into an upper aqueous layer (containing RNA), an interphase, and a lower organic layer (containing DNA and proteins). RNA was precipitated from the aqueous phase using isopropanol, while DNA was precipitated from the aqueous-organic interphase using ethanol.
(§4) Quantitative real-time polymerase chain reaction (qRT-PCR) was performed using the 2× RealStar SYBR Mixture (GenStar, Cat# A301-10, Guangzhou, China) on a LightCycler 480 II real-time PCR system (Roche, USA). Data were analyzed using the 2^−ΔΔCt method. […]

[2] = system: BCL-2 gene transcription in brain of APP/PS1 mice; experiment: Real-time RT-PCR of mice brain, BCL-2; format: in vivo; conditions: 10 mg/kg
Method: as §1, §2, §3, §4

COc1cc2c(cc1OC)C(=O)C(CC1CCN(Cc3ccccc3)CC1)C2 (centres unmarked) [Donepezil, donepezil, reference compound]
-∆∆Ct, BAX [1]: -0.07
-∆∆Ct, BCL-2 [2]: 0.26
